Test results reported in patent US7393944.

Target: T1, T-bet (Mus musculus) (UniProt Q9JKD8)
T1 sequence: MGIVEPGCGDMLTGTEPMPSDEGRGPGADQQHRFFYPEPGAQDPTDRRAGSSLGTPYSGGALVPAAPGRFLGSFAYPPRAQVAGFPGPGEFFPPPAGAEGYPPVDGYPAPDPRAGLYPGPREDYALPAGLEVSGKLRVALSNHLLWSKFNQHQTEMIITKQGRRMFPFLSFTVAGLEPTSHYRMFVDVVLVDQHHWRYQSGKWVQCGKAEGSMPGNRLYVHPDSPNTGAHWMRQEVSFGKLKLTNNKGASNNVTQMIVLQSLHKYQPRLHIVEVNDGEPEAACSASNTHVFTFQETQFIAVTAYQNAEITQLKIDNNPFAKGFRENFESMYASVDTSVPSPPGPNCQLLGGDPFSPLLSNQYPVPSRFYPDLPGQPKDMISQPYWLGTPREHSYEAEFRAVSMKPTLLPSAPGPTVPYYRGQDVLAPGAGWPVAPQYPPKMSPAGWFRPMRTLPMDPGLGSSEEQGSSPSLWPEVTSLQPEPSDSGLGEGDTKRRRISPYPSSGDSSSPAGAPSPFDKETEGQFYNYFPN
Experiment: binding assay
Details: recombinant T-bet binds T-box site in IL-2 promoter; method not stated; purified recombinant protein

AAACTGCCACCTAAGTGTGGGCTA (double strand) [murine IL-2 promoter T-box site]
binding result: binds

The exact form of at least one protein or probe is not confirmed. Where a protein sequence is shown, tags need not be part of it.
